Assay results from the supplement of paper PMC4371806.
The full ranking holds about 2,300 compounds; the median of “plate-normalized OD600 growth (mean of duplicates)” is about 0.29, and the lowest 2% start at about 0.22. Some of the results follow.

Test system: Escherichia coli BW25113
Assay: plate-normalized OD600 growth (mean of duplicates) (OD600 (normalized)); higher = more growth (less inhibition)
Conditions: 10 µM
Experimental: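 E. coli BW25113 in LB (100 µl, 96-well, no shaking) was exposed to 10 µM of each compound from a ~30,000-member library and grown at 37°C for 24 h or 15°C for 48 h, in duplicate. Growth was read as OD600 and the duplicate ODs were normalized across screening plates to correct plate-to-plate variation. Hits were >3σ below the mean OD600 at 15°C and <2σ below the mean at 37°C.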

Compound	plate-normalized OD600 growth (temperature: 15°C, 48 h)	plate-normalized OD600 growth (temperature: 37°C, 24 h)
O=C(Nc1ccc(O)cc1)c1c(O)c2ccccc2[nH]c1=O	0.234	0.603
CC1(C)CC(=O)C2=C(C1)OC(N)=C([N+](=O)[O-])C2c1ccccc1 (centres undefined)	0.263	0.625
COc1ccc(CCCC(=O)N/N=C/c2ccc(O)cc2O)cc1	0.239	0.631
O=C(O)CCNC(=S)Nc1cccc(C(F)(F)F)c1	0.252	0.632
NC(N)=NS(=O)(=O)c1ccc(NC(=O)C2CCCCC2)cc1	0.256	0.628
O=C(O)CCCc1nc(-c2cccc([N+](=O)[O-])c2)no1	0.238	0.616
O=C1C=C(Cl)CC(c2ccc(C(F)(F)F)cc2)C1 (centres undefined)	0.243	0.607
c1ccc(OCCOc2ccccn2)nc1	0.25	0.612
CC(=O)NC1=NN(C(C)=O)C(C)(CS(=O)(=O)c2ccc(Br)cc2)S1 (centres undefined)	0.261	0.62
O=C(COc1ccc(Cl)cc1Cl)NS(=O)(=O)c1ccccc1	0.222	0.637
CCn1nc(C)c(N=Cc2ccc(N(C)C)c(Br)c2)c1C	0.246	0.64
CC(=O)NN(C)c1ccc(C(F)(F)F)cc1[N+](=O)[O-]	0.236	0.612
COC(=O)C1=C(C)N(c2ccc(Cl)cc2)/C(=C/c2sccc2C)C1=O	0.251	0.644
CCOP(=O)(OCC)C(Nc1nc2ccc(C)cc2s1)c1cccc(C)c1 (centres undefined)	0.251	0.618
CC(=O)N/C(=C/c1ccc2c(c1)OCO2)C(=O)O	0.266	0.654
COc1ccc(CNCC2COc3ccccc3O2)cc1OC (centres undefined)	0.26	0.638

Compound	plate-normalized OD600 growth (temperature: 15°C, 48 h)	plate-normalized OD600 growth (temperature: 37°C, 24 h)
FC(F)(F)c1ccc2[nH]c(=S)[nH]c2c1	0.248	0.623
O=C(O)c1cccc(N=Cc2ccc(OCc3ccc(F)cc3)cc2)c1	0.225	0.684
C(=N\Nc1nc2ccccc2s1)/c1ccc(Sc2nc3ccccc3s2)o1	0.249	0.62
O=c1c2cc3c(=O)n(CC4CCCO4)c(=O)c3cc2c(=O)n1CC1CCCO1 (centres undefined)	0.259	0.619
NC(=O)CCSCCC(N)=O	0.248	0.614
O=C(NCc1ccco1)C1CC(=O)N(c2ccccc2)C1 (centres undefined)	0.259	0.609
Nc1ncnc2c1nc(N/N=C/c1ccc(O)cc1)n2C1OC(CO)C(O)C1O (centres undefined)	0.242	0.624
Cc1cc(=O)oc(C)c1C(=O)OCC(=O)c1ccccc1	0.244	0.622
CCCS(=O)(=O)c1c(S(=O)(=O)CCC)c2cnccn2c1C(=O)c1ccc(F)cc1	0.241	0.612
O=C(CC1=C(Sc2ccccc2)c2ccccc2C1Cc1ccccc1)Nc1ccc(OC(F)(F)Cl)cc1 (centres undefined)	0.233	0.611
FC(F)(F)Oc1ccc(NC(=S)NNc2ncc(Cl)cc2Cl)cc1	0.255	0.607
CN(C)c1ccc(-c2nc(-c3ccccc3)c(-c3ccc(Oc4ccccc4)cc3)[nH]2)cc1	0.24	0.628
O=C1Nc2ccc(Br)cc2C12CC(c1ccc(F)cc1)=NC(=S)N2c1ccccc1C(F)(F)F (centres undefined)	0.247	0.618
Cc1cc(N=C(N)N=C(N)N)no1	0.242	0.635
Cn1ccnc1SCC(=O)Nc1nccs1	0.254	0.623
Ic1ccc(I)s1	0.259	0.62

A draw from above in order of SMILES length, low to high.
Compound	plate-normalized OD600 growth (temperature: 15°C, 48 h)	plate-normalized OD600 growth (temperature: 37°C, 24 h)
Cc1cc(=O)oc(C)c1C(=O)OCC(=O)c1ccccc1	0.244	0.622
NC(N)=NS(=O)(=O)c1ccc(NC(=O)C2CCCCC2)cc1	0.256	0.628
CN(C)c1ccc(-c2nc(-c3ccccc3)c(-c3ccc(Oc4ccccc4)cc3)[nH]2)cc1	0.24	0.628
